# PubChem BioAssay AID493246 | Drosophila RNAi Screening Center – 2011
# Aim: 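Genome-wide search for dsRNAs that reduce cell number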 (primary screen)
# System: Drosophila Kc and S2R+ cells
# Reagents: long dsRNA against Drosophila genes
# Detection: 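Cell number per well after knock-down, printed as raw plate values; calls were based on per-plate z-scores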
# Reading the numbers: Kc cell number and S2R+ cell number: higher = more cells remaining
# Call rule: 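Counted as a hit if cell number falls by a z-score of at least 3 within its plate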
# The deposit covers about 21,000 reagents; shown is an unselected part of those with a known target gene and a result. Of all reagents, 429 (2%) were called active. 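Values are raw and not normalised between plates; calls rest on per-plate z-scores that were not deposited.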 Names joined by + are all predicted targets of the reagent. The record does not give: the amount of reagent, the time to read-out.
"Kc cell number, rep 1","Kc cell number, rep 2","S2R+ cell number, rep 1","S2R+ cell number, rep 2",activity call,gene,amplicon
1.46e6,1.59e6,8.97e5,9.70e5,inactive,CG18139 (retired record) + Hmx,DRSC15307
1.60e6,1.63e6,1.21e6,1.39e6,inactive,CG12835 (retired record),DRSC06181
1.43e6,1.47e6,1.25e6,1.31e6,inactive,CG8252,DRSC07126
1.55e6,1.55e6,1.11e6,1.16e6,inactive,Josd,DRSC18323
1.46e6,1.68e6,1.27e6,1.39e6,inactive,CG9799,DRSC16567
1.47e6,1.51e6,9.92e5,1.07e6,inactive,CG30338,DRSC05166
1.58e6,1.71e6,1.22e6,1.36e6,inactive,Camta,DRSC06440
1.52e6,1.45e6,7.12e5,7.91e5,inactive,Camta,DRSC06441
1.35e6,1.37e6,1.14e6,1.18e6,inactive,Camta,DRSC07272
1.46e6,1.56e6,1.28e6,1.46e6,inactive,CG8414,DRSC07168
1.50e6,1.31e6,1.01e6,1.26e6,inactive,CG12078,DRSC08242
3.39e5,,6.99e5,,inactive,CG3078,DRSC18531
1.60e6,1.61e6,1.23e6,1.35e6,inactive,CG34210,DRSC04579
1.77e6,1.71e6,1.10e6,1.16e6,inactive,CG1812,DRSC20557
1.70e6,1.74e6,1.05e6,1.22e6,inactive,CG15147,DRSC02447
1.85e6,1.88e6,1.45e6,1.58e6,inactive,CG15147,DRSC02448
1.52e6,1.51e6,1.06e6,1.16e6,inactive,sbm,DRSC20185
1.52e6,1.61e6,1.25e6,1.33e6,inactive,CG17118,DRSC02579
5.72e5,,8.49e5,,inactive,CG42566,DRSC03949
1.46e6,1.43e6,1.32e6,1.29e6,inactive,Rh50,DRSC08692
1.57e6,1.89e6,1.14e6,1.24e6,inactive,mew,DRSC18971
1.51e6,1.46e6,1.05e6,1.11e6,inactive,mew,DRSC20352
8.69e5,1.07e6,1.35e6,6.98e5,inactive,Alg2,DRSC08298
1.61e6,1.61e6,1.00e6,1.18e6,inactive,CG31681,DRSC00107
1.49e6,1.51e6,1.24e6,1.34e6,inactive,CG16790,DRSC15156
1.23e6,1.38e6,1.22e6,1.26e6,inactive,PolZ2,DRSC12325
1.51e6,1.52e6,8.50e5,1.05e6,inactive,CG14629,DRSC18476
1.52e6,1.64e6,1.28e6,1.41e6,inactive,Dad1,DRSC02263
1.37e6,1.44e6,7.76e5,8.62e5,active,Crtc,DRSC10578
1.44e6,1.45e6,9.86e5,1.07e6,inactive,CCAP-R,DRSC14891
1.52e6,1.50e6,1.01e6,1.08e6,inactive,CCAP-R,DRSC15967
1.42e6,1.40e6,1.18e6,1.24e6,inactive,CG10916,DRSC06012
9.86e5,1.22e6,7.67e5,7.36e5,inactive,dachs,DRSC02072
1.77e6,1.75e6,1.22e6,1.39e6,inactive,dachs,DRSC02191
1.69e6,1.60e6,1.35e6,1.52e6,inactive,Acp36DE,DRSC01860
1.60e6,1.61e6,1.02e6,1.11e6,inactive,PPYR1,DRSC19612
1.45e6,1.59e6,1.06e6,1.04e6,inactive,CG10177,DRSC14201
1.43e6,1.55e6,9.74e5,1.08e6,inactive,CG11406,DRSC04010
1.66e6,1.76e6,1.37e6,1.38e6,inactive,CG11406,DRSC04108
1.57e6,1.77e6,1.31e6,1.53e6,inactive,Pcmt,DRSC12363
1.57e6,1.63e6,1.25e6,1.24e6,inactive,imd,DRSC05928
1.54e6,1.59e6,1.17e6,1.36e6,inactive,Nedd4,DRSC11234
1.18e6,1.35e6,9.41e5,1.00e6,inactive,Nup154,DRSC03384
1.44e6,1.53e6,1.06e6,1.09e6,inactive,Cchl,DRSC15949
1.73e6,1.79e6,1.26e6,1.37e6,inactive,Tpc1,DRSC15614
1.55e6,1.62e6,1.31e6,1.43e6,inactive,Tpc1,DRSC16074
1.77e6,2.15e6,1.26e6,1.31e6,inactive,opa,DRSC12384
1.41e6,1.58e6,1.19e6,1.31e6,inactive,CG15177,DRSC12557
1.49e6,1.33e6,1.01e6,1.19e6,inactive,CG32276,DRSC08027
1.50e6,1.54e6,1.16e6,1.22e6,inactive,CG12395,DRSC19453
1.52e6,1.56e6,1.19e6,1.38e6,inactive,RfC3,DRSC03411
1.32e6,1.30e6,1.04e6,1.12e6,inactive,CG7142,DRSC16204
1.61e6,1.54e6,1.13e6,1.30e6,inactive,Antdh,DRSC20307
1.28e6,1.26e6,1.27e6,1.30e6,inactive,SP,DRSC09664
1.04e6,1.29e6,1.04e6,9.86e5,inactive,Rdh1,DRSC06812
1.63e6,1.53e6,1.12e6,1.25e6,inactive,Hmgcl,DRSC02051
5.30e5,,8.78e5,,inactive,CG2260,DRSC18223
1.36e6,1.45e6,1.07e6,1.25e6,inactive,CG42717,DRSC09411
1.45e6,1.45e6,1.01e6,1.12e6,inactive,mAChR-C,DRSC17890
